Experimental data: the supplement of paper PMC10849652
Some of the results follow.

By UniProt entry, the sequences of proteins in these tests, tags left out. Where a name states a change or a piece, a line headed by the entry shows the natural chain unless it says otherwise.
UniProt Q9H497: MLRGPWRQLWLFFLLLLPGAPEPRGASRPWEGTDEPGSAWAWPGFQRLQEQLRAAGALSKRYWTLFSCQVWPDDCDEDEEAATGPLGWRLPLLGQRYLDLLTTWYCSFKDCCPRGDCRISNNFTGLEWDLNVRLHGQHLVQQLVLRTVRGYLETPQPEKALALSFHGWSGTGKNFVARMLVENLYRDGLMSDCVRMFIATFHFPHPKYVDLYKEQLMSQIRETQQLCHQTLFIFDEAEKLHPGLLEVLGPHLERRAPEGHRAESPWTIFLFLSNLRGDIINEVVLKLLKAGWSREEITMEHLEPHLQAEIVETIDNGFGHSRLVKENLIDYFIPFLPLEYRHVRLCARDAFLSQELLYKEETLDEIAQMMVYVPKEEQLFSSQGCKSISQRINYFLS
UniProt O43715: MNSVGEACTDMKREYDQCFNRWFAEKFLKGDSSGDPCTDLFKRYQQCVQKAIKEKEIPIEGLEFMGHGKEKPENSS
UniProt Q14258, whole entry, looked up: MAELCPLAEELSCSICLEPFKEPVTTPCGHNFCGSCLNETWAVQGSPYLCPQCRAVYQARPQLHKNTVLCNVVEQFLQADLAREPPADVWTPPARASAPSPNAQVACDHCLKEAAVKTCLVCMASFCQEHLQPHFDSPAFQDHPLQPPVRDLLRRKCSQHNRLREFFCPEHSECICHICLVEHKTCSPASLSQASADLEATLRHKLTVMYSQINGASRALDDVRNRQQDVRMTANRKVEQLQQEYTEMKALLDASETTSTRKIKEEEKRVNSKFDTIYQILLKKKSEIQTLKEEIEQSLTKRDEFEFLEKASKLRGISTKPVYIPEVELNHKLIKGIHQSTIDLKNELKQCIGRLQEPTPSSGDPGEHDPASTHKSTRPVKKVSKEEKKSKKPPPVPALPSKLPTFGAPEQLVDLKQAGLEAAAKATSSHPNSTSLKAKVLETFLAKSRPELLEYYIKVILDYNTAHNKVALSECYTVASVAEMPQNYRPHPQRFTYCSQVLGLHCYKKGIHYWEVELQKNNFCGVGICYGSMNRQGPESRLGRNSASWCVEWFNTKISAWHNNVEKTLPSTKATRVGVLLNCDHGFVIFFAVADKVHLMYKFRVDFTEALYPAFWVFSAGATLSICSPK
UniProt Q15714: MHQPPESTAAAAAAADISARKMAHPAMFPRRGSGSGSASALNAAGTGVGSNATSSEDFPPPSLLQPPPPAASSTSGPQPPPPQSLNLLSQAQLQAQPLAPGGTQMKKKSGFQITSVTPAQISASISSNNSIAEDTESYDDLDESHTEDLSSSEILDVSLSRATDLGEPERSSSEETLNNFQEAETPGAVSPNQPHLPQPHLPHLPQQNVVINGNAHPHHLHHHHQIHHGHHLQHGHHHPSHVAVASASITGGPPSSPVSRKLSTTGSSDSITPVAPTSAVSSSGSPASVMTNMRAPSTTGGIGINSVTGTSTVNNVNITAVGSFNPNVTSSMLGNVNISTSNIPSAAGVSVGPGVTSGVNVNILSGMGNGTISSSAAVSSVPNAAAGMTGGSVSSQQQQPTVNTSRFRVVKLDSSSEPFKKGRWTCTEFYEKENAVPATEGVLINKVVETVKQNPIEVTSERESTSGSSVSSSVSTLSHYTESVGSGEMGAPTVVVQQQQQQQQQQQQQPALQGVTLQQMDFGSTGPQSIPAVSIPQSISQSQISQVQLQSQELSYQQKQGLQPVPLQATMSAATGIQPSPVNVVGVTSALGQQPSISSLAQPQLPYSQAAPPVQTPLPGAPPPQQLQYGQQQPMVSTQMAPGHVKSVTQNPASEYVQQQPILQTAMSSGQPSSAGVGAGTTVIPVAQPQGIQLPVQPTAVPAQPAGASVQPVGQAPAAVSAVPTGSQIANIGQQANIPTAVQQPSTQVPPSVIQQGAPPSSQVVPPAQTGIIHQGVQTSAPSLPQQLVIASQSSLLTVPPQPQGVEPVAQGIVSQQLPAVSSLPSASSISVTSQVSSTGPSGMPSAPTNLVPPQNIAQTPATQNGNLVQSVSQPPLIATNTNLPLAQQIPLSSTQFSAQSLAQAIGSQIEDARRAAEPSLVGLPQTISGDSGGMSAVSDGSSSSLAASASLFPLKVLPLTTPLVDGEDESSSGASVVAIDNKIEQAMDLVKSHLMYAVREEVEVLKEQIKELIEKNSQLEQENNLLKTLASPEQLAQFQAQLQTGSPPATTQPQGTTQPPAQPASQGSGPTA
UniProt Q9NS69: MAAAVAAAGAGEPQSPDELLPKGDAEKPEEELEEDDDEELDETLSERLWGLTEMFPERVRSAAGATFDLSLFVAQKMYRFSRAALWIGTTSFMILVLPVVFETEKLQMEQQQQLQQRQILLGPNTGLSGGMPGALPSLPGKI
UniProt O75648: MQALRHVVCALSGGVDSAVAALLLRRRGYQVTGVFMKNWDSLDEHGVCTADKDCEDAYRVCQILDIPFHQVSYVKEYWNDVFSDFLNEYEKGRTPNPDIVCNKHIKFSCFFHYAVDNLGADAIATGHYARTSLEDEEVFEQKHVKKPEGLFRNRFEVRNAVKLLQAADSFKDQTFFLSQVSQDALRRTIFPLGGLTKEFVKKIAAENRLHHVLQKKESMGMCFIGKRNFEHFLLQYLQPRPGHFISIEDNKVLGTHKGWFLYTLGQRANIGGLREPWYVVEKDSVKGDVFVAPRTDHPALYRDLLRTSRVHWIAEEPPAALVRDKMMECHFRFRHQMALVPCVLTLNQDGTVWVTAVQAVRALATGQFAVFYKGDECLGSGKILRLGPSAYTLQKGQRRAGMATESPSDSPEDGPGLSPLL
UniProt Q9UPN9: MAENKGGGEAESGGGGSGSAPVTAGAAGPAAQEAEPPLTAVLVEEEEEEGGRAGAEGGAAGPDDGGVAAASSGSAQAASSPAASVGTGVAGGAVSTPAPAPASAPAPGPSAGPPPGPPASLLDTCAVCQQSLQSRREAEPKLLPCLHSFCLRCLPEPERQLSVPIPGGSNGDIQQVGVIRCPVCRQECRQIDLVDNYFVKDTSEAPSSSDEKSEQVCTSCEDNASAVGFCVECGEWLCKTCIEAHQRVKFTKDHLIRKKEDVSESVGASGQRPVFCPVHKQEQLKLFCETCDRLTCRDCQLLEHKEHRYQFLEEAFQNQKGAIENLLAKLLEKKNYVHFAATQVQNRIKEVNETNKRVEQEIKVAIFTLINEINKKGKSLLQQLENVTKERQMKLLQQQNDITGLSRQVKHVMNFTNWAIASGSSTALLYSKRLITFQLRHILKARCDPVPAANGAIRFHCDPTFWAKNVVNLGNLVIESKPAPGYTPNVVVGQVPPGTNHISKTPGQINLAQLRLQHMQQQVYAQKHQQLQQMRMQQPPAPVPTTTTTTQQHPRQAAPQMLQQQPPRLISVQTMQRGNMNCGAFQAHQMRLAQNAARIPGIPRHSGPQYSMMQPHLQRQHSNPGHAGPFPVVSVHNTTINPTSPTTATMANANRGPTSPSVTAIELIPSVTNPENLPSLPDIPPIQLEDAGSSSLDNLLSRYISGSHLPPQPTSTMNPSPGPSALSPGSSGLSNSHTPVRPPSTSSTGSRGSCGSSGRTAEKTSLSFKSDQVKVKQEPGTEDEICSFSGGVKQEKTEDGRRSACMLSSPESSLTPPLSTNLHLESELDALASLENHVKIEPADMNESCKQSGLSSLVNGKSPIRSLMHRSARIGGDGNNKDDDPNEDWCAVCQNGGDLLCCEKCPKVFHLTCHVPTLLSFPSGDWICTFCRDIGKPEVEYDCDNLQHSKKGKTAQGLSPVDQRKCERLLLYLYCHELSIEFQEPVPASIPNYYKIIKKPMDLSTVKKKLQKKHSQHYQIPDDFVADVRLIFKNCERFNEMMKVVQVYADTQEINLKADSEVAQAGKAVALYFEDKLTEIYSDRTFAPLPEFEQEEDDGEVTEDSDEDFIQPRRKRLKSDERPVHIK
UniProt Q9Y3Q8: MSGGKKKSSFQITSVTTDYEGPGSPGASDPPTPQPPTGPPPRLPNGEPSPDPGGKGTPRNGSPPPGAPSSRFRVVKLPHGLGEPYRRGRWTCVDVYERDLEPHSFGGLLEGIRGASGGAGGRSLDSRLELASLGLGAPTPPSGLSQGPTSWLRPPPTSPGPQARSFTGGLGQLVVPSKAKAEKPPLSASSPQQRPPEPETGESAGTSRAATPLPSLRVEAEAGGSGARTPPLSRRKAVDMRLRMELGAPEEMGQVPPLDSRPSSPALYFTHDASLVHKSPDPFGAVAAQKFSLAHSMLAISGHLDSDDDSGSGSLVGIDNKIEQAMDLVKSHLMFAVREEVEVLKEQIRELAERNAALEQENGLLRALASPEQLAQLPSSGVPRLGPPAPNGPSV
UniProt Q9BRZ2: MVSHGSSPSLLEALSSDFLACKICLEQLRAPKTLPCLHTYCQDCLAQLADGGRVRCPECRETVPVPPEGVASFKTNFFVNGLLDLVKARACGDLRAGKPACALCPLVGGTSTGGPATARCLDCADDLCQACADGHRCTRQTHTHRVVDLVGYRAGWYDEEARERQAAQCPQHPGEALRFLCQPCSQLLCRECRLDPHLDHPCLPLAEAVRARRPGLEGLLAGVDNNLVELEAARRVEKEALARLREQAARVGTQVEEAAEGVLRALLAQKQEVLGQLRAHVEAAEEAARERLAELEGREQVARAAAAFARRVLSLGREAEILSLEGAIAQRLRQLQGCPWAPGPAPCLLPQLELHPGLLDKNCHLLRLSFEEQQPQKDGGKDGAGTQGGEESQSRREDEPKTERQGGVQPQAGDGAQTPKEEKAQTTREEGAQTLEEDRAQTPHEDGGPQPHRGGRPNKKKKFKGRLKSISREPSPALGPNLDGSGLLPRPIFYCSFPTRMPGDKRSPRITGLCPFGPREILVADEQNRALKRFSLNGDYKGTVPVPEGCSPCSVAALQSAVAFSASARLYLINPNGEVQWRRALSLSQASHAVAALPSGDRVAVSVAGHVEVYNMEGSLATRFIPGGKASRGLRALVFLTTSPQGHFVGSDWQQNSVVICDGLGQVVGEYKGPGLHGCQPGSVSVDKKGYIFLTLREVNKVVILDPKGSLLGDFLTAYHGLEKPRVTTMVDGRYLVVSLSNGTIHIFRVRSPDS
UniProt P29144: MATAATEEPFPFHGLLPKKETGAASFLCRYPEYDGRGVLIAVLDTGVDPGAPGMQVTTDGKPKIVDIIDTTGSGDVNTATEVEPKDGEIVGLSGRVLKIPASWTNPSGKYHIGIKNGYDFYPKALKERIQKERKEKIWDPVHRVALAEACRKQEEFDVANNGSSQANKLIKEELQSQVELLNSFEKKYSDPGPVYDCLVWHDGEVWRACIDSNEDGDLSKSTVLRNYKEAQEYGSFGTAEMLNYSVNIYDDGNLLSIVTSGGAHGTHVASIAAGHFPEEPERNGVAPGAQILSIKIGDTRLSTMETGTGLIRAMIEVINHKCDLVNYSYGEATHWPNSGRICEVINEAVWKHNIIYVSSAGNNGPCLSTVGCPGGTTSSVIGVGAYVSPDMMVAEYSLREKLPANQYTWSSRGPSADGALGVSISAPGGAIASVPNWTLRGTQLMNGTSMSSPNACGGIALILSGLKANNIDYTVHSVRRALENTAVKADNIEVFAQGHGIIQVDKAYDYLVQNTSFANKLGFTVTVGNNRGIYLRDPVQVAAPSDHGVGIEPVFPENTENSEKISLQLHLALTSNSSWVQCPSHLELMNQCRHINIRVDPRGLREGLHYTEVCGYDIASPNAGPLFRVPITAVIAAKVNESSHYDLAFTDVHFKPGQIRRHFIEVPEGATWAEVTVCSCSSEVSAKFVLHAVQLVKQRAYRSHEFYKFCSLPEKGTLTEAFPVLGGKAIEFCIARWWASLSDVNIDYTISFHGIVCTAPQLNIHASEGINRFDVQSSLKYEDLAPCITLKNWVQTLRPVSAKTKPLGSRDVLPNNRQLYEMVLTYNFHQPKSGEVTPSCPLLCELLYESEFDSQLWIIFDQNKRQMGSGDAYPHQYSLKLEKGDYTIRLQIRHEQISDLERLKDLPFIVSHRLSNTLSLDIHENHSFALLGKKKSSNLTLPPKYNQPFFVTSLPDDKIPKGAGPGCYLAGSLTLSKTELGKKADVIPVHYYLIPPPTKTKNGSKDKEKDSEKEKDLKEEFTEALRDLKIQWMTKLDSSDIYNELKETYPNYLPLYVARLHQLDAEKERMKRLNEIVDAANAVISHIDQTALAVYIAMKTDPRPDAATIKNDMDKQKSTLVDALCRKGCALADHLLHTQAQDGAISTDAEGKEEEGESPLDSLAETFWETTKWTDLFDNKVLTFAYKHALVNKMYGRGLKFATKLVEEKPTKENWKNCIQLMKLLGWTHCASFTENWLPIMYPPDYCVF
UniProt Q8IUR0, whole entry, looked up: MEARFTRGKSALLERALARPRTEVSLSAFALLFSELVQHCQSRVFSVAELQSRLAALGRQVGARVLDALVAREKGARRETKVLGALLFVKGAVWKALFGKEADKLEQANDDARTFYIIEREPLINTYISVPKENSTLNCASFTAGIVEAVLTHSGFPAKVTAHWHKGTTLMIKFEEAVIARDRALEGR

How the values were obtained:
Assay in all cases: log2 fold change, soluble protein after heating vs DMSO (PISA); higher = thermal stabilisation; K562 cells, 10 uM, 30 min; active = over 0.2 and 3.5 SD of the protein, either way, in both replicates (recomputed)
[1] = compound: COC1=CC=C(C=C1)CN2C=CC3=C2C=C(C=C3)C(=O)NO
How it was run: (§1)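 Soluble protein was quantified by TMTpro 16plex LC-MS/MS after channel sums were equalised. It was obtained as the supernatant after 21,000xg for 90 min from pooled aliquots of K562 cells (2×10^6 cells/mL, 10 μM compound, 30 min) heated for 3 min across 48°C-58°C and extracted in PBS with 0.5% NP-40 at 4°C. Thermal stability values are relative to control samples and come from duplicates. They are given as log2 fold changes.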

[2] = compound: CON(C)C(=O)N1N=C(c2cc(F)ccc2F)S[C@@]1(CCCN)c1ccccc1 [filanesib]
How it was run: as §1

[3] = compound: CO[C@H]1C[C@@H]2CC[C@@H](C)[C@@](O)(O2)C(=O)C(=O)N2CCCC[C@H]2C(=O)O[C@H]([C@H](C)C[C@@H]2CC[C@H](n3cnnn3)[C@H](OC)C2)CC(=O)[C@H](C)/C=C(\C)[C@@H](O)[C@@H](OC)C(=O)[C@H](C)C[C@H](C)/C=C/C=C/C=C/1C [zotarolimus]
How it was run: as §1

[4] = compound: COc1cc(C(=O)O)ccc1NC(=O)[C@@H]1N[C@@H](CC(C)(C)C)[C@](C#N)(c2ccc(Cl)cc2F)[C@H]1c1cccc(Cl)c1F [idasanutlin]
How it was run: as §1

[5] = compound: COc1cc(Nc2ncc3c(n2)-c2ccc(Cl)cc2C(c2c(F)cccc2OC)=NC3)ccc1C(=O)O [alisertib]
How it was run: as §1

[6] = compound: COc1cc2nc(-c3cc(F)ccc3O)nc(N[C@@H]3CNC[C@H]3C(C)(C)O)c2cc1OC
How it was run: as §1

[7] = compound: COc1cc2ncnc(Nc3ccc(F)c(Cl)c3)c2cc1OCCCN1CCOCC1 [gefitinib]
How it was run: as §1

[8] = compound: COc1cccc2cc(-c3nc([C@H]4CC[C@H](C(=O)O)CC4)n4ncnc(N)c34)[nH]c12
How it was run: as §1

[9] = compound: CS(=O)(=O)CCNCc1ccc(-c2ccc3ncnc(Nc4ccc(OCc5cccc(F)c5)c(Cl)c4)c3c2)o1 [lapatinib]
How it was run: as §1

[10] = compound: CS(=O)(=O)N1CCN(Cc2cc3nc(-c4cccc5[nH]ncc45)nc(N4CCOCC4)c3s2)CC1 [pictilisib]
How it was run: as §1

[11] = compound: CS(=O)(=O)c1ccc(-c2cnc(N)c(C(=O)Nc3ccccc3)n2)cc1
How it was run: as §1

[12] = compound: C[C@@H](Oc1cc(-c2cnn(C3CCNCC3)c2)cnc1N)c1c(Cl)ccc(F)c1Cl [crizotinib]
How it was run: as §1

[13] = compound: C[C@@H]1COCCN1C2=NC(=NC(=C2)C3(CC3)S(=O)(=O)C)C4=C5C=CNC5=CC=C4
How it was run: as §1

[14] = compound: C[C@H](C1=CC=C(C=C1)C(=O)NC2=C3C=CNC3=NC=C2)N
How it was run: as §1

[15] = compound: C[C@H](Nc1ncnc2nc[nH]c12)c1cc2cccc(Cl)c2c(=O)n1-c1ccccc1 [duvelisib]
How it was run: as §1

[16] = compound: Cc1cc(Nc2cc(CN3CCOCC3)c3nc(C)c(Cc4ccc(Cl)cc4F)n3n2)n[nH]1 [gandotinib]
How it was run: as §1

[17] = compound: Cc1cc(Nc2cc(N3CCN(C)CC3)nc(Sc3ccc(NC(=O)C4CC4)cc3)n2)n[nH]1 [tozasertib]
How it was run: as §1

[18] = compound: Cc1cc(SCc2sc(-c3ccc(C(F)(F)F)cc3)nc2C)ccc1OCC(=O)O
How it was run: as §1

[19] = compound: Cc1ccc(-n2nc(C(C)(C)C)cc2NC(=O)Nc2ccc(OCCN3CCOCC3)c3ccccc23)cc1 [doramapimod]
How it was run: as §1

[20] = compound: Cc1ccc(C(=O)N(CCCN)[C@@H](c2nc3cc(Cl)ccc3c(=O)n2Cc2ccccc2)C(C)C)cc1 [ispinesib]
How it was run: as §1

Measured: log2 fold change

TOR3A (UniProt Q9H497)
inactive: [1] -0.008 | [2] 0.016 | [3] -0.017 | [4] 0.024 | [5] -0.066 | [6] -0.093 | [7] -0.03 | [8] 0.032 | [9] -0.027 | [10] -0.042 | [11] 0.025 | [12] -0.014 | [13] 0.009 | [14] 0.079 | [15] -0.018 | [16] 0.025 | [17] -0.022 | [18] -0.016 | [19] 0.03 | [20] -0.039

TRIAP1 (UniProt O43715)
inactive: [1] -0.049 | [2] 0.014 | [3] -0.014 | [4] -0.091 | [5] -0.063 | [6] -0.065 | [7] 0.017 | [8] 0.032 | [9] -0.103 | [10] -0.055 | [11] 0.023 | [12] 0.134 | [13] 0.106 | [14] -0.101 | [15] 0.08 | [16] -0.011 | [17] 0.014 | [18] 0.023 | [19] -0.034 | [20] 0.124

TRIM25 (UniProt Q14258)
inactive: [1] 0.004 | [2] 0.353 | [3] 0.06 | [4] 0.127 | [5] -0.016 | [6] 0.12 | [7] 0.033 | [8] -0.159 | [9] 0.043 | [10] -0.062 | [11] -0.056 | [12] 0.031 | [13] -0.312 | [14] 0.13 | [15] -0.061 | [16] 0.135 | [17] 0.028 | [18] 0.117 | [19] 0.138 | [20] -0.061

TPI1 (UniProt P60174)
inactive: [1] -0.043 | [2] -0.001 | [3] -0.037 | [4] 0.014 | [5] -0.01 | [6] 0.044 | [7] -0.003 | [8] 0.03 | [9] -0.053 | [10] 0.058 | [11] 0.014 | [12] 0.036 | [13] 0.023 | [14] -0.018 | [15] 0.016 | [16] -0.015 | [17] -0.013 | [18] -0.03 | [19] -0.065 | [20] 0.013

TSC22D1 (UniProt Q15714)
inactive: [1] 0.072 | [2] -0.005 | [3] -0.022 | [4] -0.006 | [5] -0.042 | [6] 0.033 | [7] 0.015 | [8] 0.006 | [9] 0.099 | [10] 0.11 | [11] -0.016 | [12] 0.008 | [13] 0.025 | [14] -0.06 | [15] -0.002 | [16] -0.017 | [17] 0.066 | [18] 0.084 | [19] -0.004 | [20] -0.001

TOMM22 (UniProt Q9NS69)
inactive: [1] -0.021 | [2] 0.042 | [3] 0.064 | [4] 0.06 | [5] -0.049 | [6] -0.106 | [7] 0.063 | [8] 0.056 | [9] -0.026 | [10] 0.025 | [11] 0.045 | [12] 0.106 | [13] 0.156 | [14] -0.058 | [15] 0.17 | [16] 0.028 | [17] 0.103 | [18] 0.021 | [19] 0.053 | [20] 0.139

TRMU (UniProt O75648)
inactive: [1] -0.082 | [2] 0.003 | [3] 0.053 | [4] -0.036 | [5] 0.015 | [6] 0.045 | [7] -0.008 | [8] 0.003 | [9] -0.038 | [10] 0.008 | [11] 0.035 | [12] 0.122 | [13] 0.134 | [14] 0.005 | [15] 0.055 | [16] 0.002 | [17] 0.01 | [18] 0.024 | [19] -0.049 | [20] 0.018

TRIM33 (UniProt Q9UPN9)
inactive: [1] 0.112 | [2] 0.089 | [3] 0.002 | [4] -0.048 | [5] 0.117 | [6] 0.308 | [7] 0 | [8] -0.044 | [9] -0.032 | [10] 0.051 | [11] 0.215 | [12] 0.072 | [13] 0 | [14] -0.115 | [15] 0.087 | [16] 0 | [17] 0.121 | [18] 0.173 | [19] 0.021 | [20] -0.043

TSC22D4 (UniProt Q9Y3Q8)
inactive: [1] -0.029 | [2] -0.129 | [3] 0.02 | [4] 0.031 | [5] -0.012 | [6] 0.054 | [7] 0.021 | [8] 0.006 | [9] 0.002 | [10] 0.007 | [11] -0.018 | [12] 0.01 | [13] 0.013 | [14] 0.024 | [15] -0.002 | [16] 0.017 | [17] 0.018 | [18] 0.002 | [19] -0.053 | [20] 0.031

TPM3 isoform 2 (UniProt P06753)
inactive: [1] -0.141 | [2] 0.008 | [3] -0.013 | [4] 0.032 | [5] -0.034 | [6] 0.198 | [7] 0.05 | [8] 0.046 | [9] 0.141 | [10] 0.021 | [11] -0.02 | [12] 0 | [13] -0.019 | [14] -0.021 | [15] -0.022 | [16] -0.063 | [17] -0.046 | [18] -0.087 | [19] 0.007 | [20] 0.002

TRAPPC4 (UniProt Q9Y296)
inactive: [1] -0.041 | [2] -0.013 | [3] 0.01 | [4] -0.009 | [5] -0.049 | [6] 0.015 | [7] 0.017 | [8] 0.015 | [9] -0.012 | [10] -0.036 | [11] 0.024 | [12] 0.014 | [13] 0.027 | [14] -0.013 | [15] 0.027 | [16] -0.096 | [17] -0.011 | [18] 0.011 | [19] -0.013 | [20] -0.015

TOLLIP (UniProt Q9H0E2)
inactive: [1] 0.097 | [2] -0.115 | [3] 0.006 | [4] 0.019 | [5] 0.165 | [6] -0.029 | [7] -0.03 | [8] -0.051 | [9] 0.023 | [10] -0.023 | [11] 0.004 | [12] 0.109 | [13] 0.098 | [14] -0.027 | [15] 0.169 | [16] 0.048 | [17] 0.079 | [18] 0.037 | [19] -0.008 | [20] 0.038

TRIM56 (UniProt Q9BRZ2)
inactive: [1] -0.083 | [2] 0.341 | [3] 0.018 | [4] 0.074 | [5] -0.046 | [6] 0.033 | [7] -0.031 | [8] -0.14 | [9] 0.072 | [10] -0.054 | [11] -0.021 | [12] -0.081 | [13] -0.161 | [14] 0.372 | [15] -0.084 | [16] 0 | [17] -0.05 | [18] 0.075 | [19] 0.156 | [20] -0.233

TPP2 (UniProt P29144)
inactive: [1] -0.107 | [2] 0.256 | [3] 0.046 | [4] 0.088 | [5] -0.214 | [6] -0.004 | [7] -0.024 | [8] -0.349 | [9] 0.198 | [10] -0.169 | [11] 0.083 | [12] -0.05 | [13] -0.399 | [14] 0.277 | [15] -0.207 | [16] 0.081 | [17] 0.007 | [18] 0.079 | [19] 0.157 | [20] -0.211

TRAPPC5 (UniProt Q8IUR0)
inactive: [1] -0.046 | [2] -0.079 | [3] 0.013 | [4] -0.088 | [5] -0.002 | [6] -0.029 | [7] -0.026 | [8] 0.033 | [9] 0.053 | [10] -0.08 | [11] 0.102 | [12] -0.075 | [13] 0.064 | [14] -0.052 | [15] -0.041 | [16] -0.162 | [17] 0.033 | [18] 0.139 | [19] -0.034 | [20] -0.107

TRAF4 (UniProt Q9BUZ4)
inactive: [1] 0.143 | [2] 0.036 | [3] -0.043 | [4] 0.079 | [5] -0.022 | [6] 0.018 | [7] -0.013 | [8] -0.056 | [9] -0.004 | [10] -0.069 | [11] -0.038 | [12] -0.082 | [13] -0.091 | [14] 0.043 | [15] 0.041 | [16] 0.07 | [17] 0 | [18] 0.036 | [19] -0.016 | [20] -0.053

Two records drawn at random from those above, as already listed:
TRAPPC5 (UniProt Q8IUR0)
inactive: [1] -0.046 | [2] -0.079 | [3] 0.013 | [4] -0.088 | [5] -0.002 | [6] -0.029 | [7] -0.026 | [8] 0.033 | [9] 0.053 | [10] -0.08 | [11] 0.102 | [12] -0.075 | [13] 0.064 | [14] -0.052 | [15] -0.041 | [16] -0.162 | [17] 0.033 | [18] 0.139 | [19] -0.034 | [20] -0.107

TPP2 (UniProt P29144)
inactive: [1] -0.107 | [2] 0.256 | [3] 0.046 | [4] 0.088 | [5] -0.214 | [6] -0.004 | [7] -0.024 | [8] -0.349 | [9] 0.198 | [10] -0.169 | [11] 0.083 | [12] -0.05 | [13] -0.399 | [14] 0.277 | [15] -0.207 | [16] 0.081 | [17] 0.007 | [18] 0.079 | [19] 0.157 | [20] -0.211
